Among all 190,000 compounds or so, about 110 (0.058%) were called active. The shares of active, inactive and inconclusive entries below differ from those in the screen.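 The calls were made as follows: active = fluorescent GTP binding to Rab7 beads changed by at least 20 points from the 100% baseline, either direction, mostly lower; inconclusive = compound itself probably fluorescent, or too few beads counted; inactive = the rest.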
Each compound was assayed on Rab7 GTPase wild type (dog), Bodipy-FL-GTP binding (assay: modulators of GTP binding to Rab7, primary screen, biochemical, wildtype, multiplex bead flow cytometry (AID 758;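 also: median green fluorescence of bound Bodipy-FL-GTP per Rab7 bead population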)). Details: GST-Rab7 beads, fluorescent GTP binding, at 10 µM, actives lie on both sides, untreated = 100%, excess cold GTP = 0%.

| Structure (SMILES) | GTP binding activity (percent of control) |
| --- | --- |
| CCCCc1nc2n[nH]c(N)c2c2c1CCCC2 | inconclusive: 90% |
| O=C(/C=N/O)NCCN1CCCCC1 | inactive: 95% |
| CSC1=C(C#N)C(c2ccc(C)s2)CC(=O)N1 (configuration not stated) | inconclusive: 102% |
| CCN1CCN(C(C(=O)NC2CCCCC2)c2ccc(Cl)cc2)CC1 (configuration not stated) | inactive: 86% |
| O=C(NCCc1ccc2c(c1)OCCO2)c1ccc(F)cc1 | inactive: 100% |
| O=C(NCc1ccccc1)N(Cc1cc2cc3c(cc2[nH]c1=O)OCCO3)CC1CCCO1 (configuration not stated) | inconclusive: 103% |
| Cc1c(Cl)c([N+](=O)[O-])nn1Cc1ccc(C(=O)N/N=C\c2ccccn2)o1 | inactive: 89% |
| CN(C)c1nc(-c2ccccc2)ncc1S(=O)(=O)c1ccccc1 | inconclusive: 105% |
| Cn1c(CSc2nc3ccccc3n2C)nc2ccccc21 | inconclusive: 101% |
| O=C(O)CC/C(=C\c1cc([N+](=O)[O-])ccc1Cl)c1nc2ccccc2s1 | inconclusive: 82% |
| CCN1CCN(C(=O)CCc2nc3ccccc3c(=O)[nH]2)CC1 | inconclusive: 103% |
| CC(C)(C)NC(=O)NC(=O)CSc1ncccn1 | inconclusive: 91% |
| [O-]/C(=C(\C(=S)NCc1ccccc1)[n+]1ccccc1)c1ccc(Cl)s1 | inactive: 99% |
| CCOC(=O)c1c[nH]c2c(C)ccc(Cl)c2c1=O | inconclusive: 100% |
| COc1ccc(NS(=O)(=O)c2cc(NC(=O)c3nc4nc(C)cc(C)n4n3)ccc2C)cc1 | inconclusive: 93% |
| O=C(COc1ccc(C(=O)c2ccccc2)cc1)NCC(=O)Nc1ccccc1Br | inactive: 95% |
| CCOc1ccccc1NC(=O)c1cc(SC)ccc1Cl | inactive: 94% |
| COC(=O)c1c(NC(=O)CN2CCN(c3cccc(Cl)c3)CC2)sc(C)c1C | inactive: 103% |
| O=C(CSc1nc2ncc(Cl)cc2[nH]1)N(Cc1ccccc1)C1CCS(=O)(=O)C1 (configuration not stated) | inactive: 95% |
| COc1cc2c(cc1OC)C1Cc3ccc(OC)c(OC)c3CN1CC2 (configuration not stated) | inconclusive: 102% |
| Cc1nnc(NC(=O)CSc2ccc(-c3ccco3)nn2)s1 | inconclusive: 96% |
| CCOC(=O)/C=C1\SCC(=O)N1CCOc1cccc(Br)c1 | active: 73% |
| Cc1nn(Cc2ccccc2Cl)c(C)c1N | inconclusive: 107% |
| O=C(O)c1cccc(N2C(=O)/C(=C/c3ccc(SCc4ccc(Cl)cc4)o3)SC2=S)c1 | inconclusive: 86% |

As entered above.
COc1cc2c(cc1OC)C1Cc3ccc(OC)c(OC)c3CN1CC2 (configuration not stated) – GTP binding activity (percent of control): inconclusive: 102%
O=C(O)c1cccc(N2C(=O)/C(=C/c3ccc(SCc4ccc(Cl)cc4)o3)SC2=S)c1 – GTP binding activity (percent of control): inconclusive: 86%

(listing goes on)

| Structure (SMILES) | GTP binding activity (percent of control) |
| --- | --- |
| COc1ccc(-n2c(N)c(C#N)c3ccc([N+](=O)[O-])cc3c2=O)cc1 | inconclusive: 91% |
| CCCCCn1c(SCCc2ccccc2)nc2c1c(=O)[nH]c(=O)n2C | inactive: 104% |
| O=C(CSc1nc(-c2ccccc2Cl)ns1)Nc1ccc2c(c1)OCO2 | inconclusive: 98% |
| COc1ccc(CCNC(=O)C(=O)N/N=C/c2cccs2)cc1OC | inactive: 97% |
| COc1ccc(CN(C)Cc2nc(Cc3cccc(F)c3)no2)c2cccnc12 | inconclusive: 98% |
| Cc1ccc2[nH]c(=O)c(CN(Cc3ccc4c(c3)OCO4)Cc3nnnn3Cc3ccco3)cc2c1 | inconclusive: 97% |
| Cc1cc(Nc2ccc3c(c2)OCCO3)c2cc(Cl)ccc2n1 | inconclusive: 95% |
| CCCC1=NN(C(=O)Cc2ccc(OC)cc2)C(O)(C(F)(F)F)C1 (configuration not stated) | inactive: 100% |
| Cc1ccc(OCc2ccc(C(=O)O)o2)c([N+](=O)[O-])c1 | inactive: 97% |
| Cc1nc2c(Cl)cc(Cl)cc2[nH]1 | inconclusive: 94% |
| Oc1c(C=Nc2cccc3cccnc23)sc2ccccc12 | inconclusive: 126% |
| Cc1cc(C)c(C)c(C(=O)c2ccccc2C(=O)O)c1C | inactive: 119% |
| COCCCNCC(O)COc1ccccc1F (configuration not stated) | inactive: 100% |
| CC(=O)Nc1sc(/C(C#N)=C/c2ccc(Cl)c(Cl)c2)nc1-c1ccc(C)cc1 | inconclusive: 121% |
| COc1ccccc1/C=C1\SC(=S)N(CC(=O)Nc2nnc(C)s2)C1=O | inactive: 94% |
| CCN(CC)c1nc(N)c2c(N)n(-c3ccccc3C)c(=S)c(C#N)c2c1C#N | inconclusive: 90% |
| COc1cc(C)c2c(c1C=O)Oc1c(c(C)c(O)c3c1C(O)OC3=O)OC2=O (configuration not stated) | inactive: 84% |
| COC(=O)CSC1=C(C#N)C(c2ccccc2OC)C(C(=O)OC)C(=O)N1 (configuration not stated) | inconclusive: 88% |
| COc1cccc(/C=N/n2c(N)c(S(=O)(=O)c3cccs3)c3nc4ccccc4nc32)c1 | inconclusive: 83% |
| COc1cc2c(cc1NC(=O)COC(=O)/C=C/c1ccccc1)oc1ccccc12 | inconclusive: 91% |
| CCOC(=O)C1=C(CSc2nncn2C)NC(=O)NC1c1cc(OCC)ccc1OCC (configuration not stated) | inconclusive: 91% |
| Cc1cccc(CN2C(=O)N/C(=C/c3ccc(C)s3)C2=O)c1 | inconclusive: 120% |
| c1ccc(-c2nnc3sc(-c4ccncc4)nn23)cc1 | inconclusive: 87% |

— PubChem BioAssay AID758 (NMMLSC, 2007)
